Data source: PubChem BioAssay AID1259254 (NCATS, 2017)

Test: 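Gene knock-downs that lead to re-replication, shown by excess G2 DNA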 (primary screen)
Cell system: human HCT116 colorectal cancer cells
Reagents: single siRNA against human genes
Duration: 3 days
Measurement: 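Nuclei stained with Hoechst and imaged; cell-cycle phase assigned by DNA content; G2 share scaled per plate, non-targeting siRNA 0%, GMNN siRNA 100%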
Direction: G2 robust z-score and G2 cells, % of GMNN control: higher = more G2 cells, more excess DNA replication
Hit rule: 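Active siRNAs have a G2 robust z of 5 or more median absolute deviations over the median, which in these data means about 38% or higher of GMNN control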
Here is a random part of about 59,000 deposited reagents. About 1,550 of them (2.6%) count as active. 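G2 share is only a proxy for re-replication; each gene was hit by three separate siRNAs, and active genes were retested.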 The numbers tell different reagents against one gene apart. Further read-outs or replicates are left out here. No sequences are given here. Not given: the amount of reagent.

gene knocked down | reagent no. | G2 robust z-score | G2 cells, % of GMNN control | activity call
FOXJ1 (forkhead box J1) | 1 | -1.47 | -7.41 | inactive
FOXJ1 (forkhead box J1) | 2 | 0.125 | 3.85 | inactive
FOXJ1 (forkhead box J1) | 3 | -0.168 | 1.79 | inactive
ARHGAP4 (Rho GTPase activating protein 4) | 1 | 0.854 | 8.97 | inactive
ARHGAP4 (Rho GTPase activating protein 4) | 2 | 4.5 | 34.6 | inactive
ARHGAP4 (Rho GTPase activating protein 4) | 3 | -0.695 | -1.92 | inactive
AKR1E2 (aldo-keto reductase family 1 member E2) | 1 | -0.0215 | 2.82 | inactive
AKR1E2 (aldo-keto reductase family 1 member E2) | 2 | -0.0948 | 2.3 | inactive
AKR1E2 (aldo-keto reductase family 1 member E2) | 3 | 1.12 | 10.9 | inactive
CST2 (cystatin SA) | 1 | 2.25 | 18.8 | inactive
CST2 (cystatin SA) | 2 | -0.771 | -2.46 | inactive
CST2 (cystatin SA) | 3 | -0.91 | -3.43 | inactive
PID1 (phosphotyrosine interaction domain containing 1) | 1 | 4.37 | 33.7 | inactive
PID1 (phosphotyrosine interaction domain containing 1) | 2 | -1.19 | -5.4 | inactive
PID1 (phosphotyrosine interaction domain containing 1) | 3 | -0.805 | -2.7 | inactive
KRTAP6-3 (keratin associated protein 6-3) | 1 | 1.58 | 14.1 | inactive
KRTAP6-3 (keratin associated protein 6-3) | 2 | 0.0264 | 3.15 | inactive
KRTAP6-3 (keratin associated protein 6-3) | 3 | 2.28 | 19 | inactive
RNF135 (ring finger protein 135) | 1 | 0.265 | 4.83 | inactive
RNF135 (ring finger protein 135) | 2 | 4.26 | 33 | inactive
RNF135 (ring finger protein 135) | 3 | -0.932 | -3.59 | inactive
ANG (angiogenin) | 1 | 5.31 | 40.3 | active
ANG (angiogenin) | 2 | 0.344 | 5.39 | inactive
ANG (angiogenin) | 3 | 7.25 | 54 | active
CALCOCO1 (calcium binding and coiled-coil domain 1) | 1 | 0.0384 | 3.24 | inactive
CALCOCO1 (calcium binding and coiled-coil domain 1) | 2 | 2.33 | 19.4 | inactive
CALCOCO1 (calcium binding and coiled-coil domain 1) | 3 | 0.483 | 6.36 | inactive
DDHD2 (DDHD domain containing 2) | 1 | -0.372 | 0.352 | inactive
DDHD2 (DDHD domain containing 2) | 2 | -0.791 | -2.6 | inactive
DDHD2 (DDHD domain containing 2) | 3 | 1.07 | 10.5 | inactive

Reprinted from the entries so far (11 entries):
gene knocked down | reagent no. | G2 robust z-score | G2 cells, % of GMNN control | activity call
CST2 (cystatin SA) | 3 | -0.91 | -3.43 | inactive
PID1 (phosphotyrosine interaction domain containing 1) | 1 | 4.37 | 33.7 | inactive
PID1 (phosphotyrosine interaction domain containing 1) | 2 | -1.19 | -5.4 | inactive
PID1 (phosphotyrosine interaction domain containing 1) | 3 | -0.805 | -2.7 | inactive
KRTAP6-3 (keratin associated protein 6-3) | 1 | 1.58 | 14.1 | inactive
KRTAP6-3 (keratin associated protein 6-3) | 2 | 0.0264 | 3.15 | inactive
KRTAP6-3 (keratin associated protein 6-3) | 3 | 2.28 | 19 | inactive
RNF135 (ring finger protein 135) | 1 | 0.265 | 4.83 | inactive
RNF135 (ring finger protein 135) | 2 | 4.26 | 33 | inactive
RNF135 (ring finger protein 135) | 3 | -0.932 | -3.59 | inactive
ANG (angiogenin) | 1 | 5.31 | 40.3 | active

More entries follow:
gene knocked down | reagent no. | G2 robust z-score | G2 cells, % of GMNN control | activity call
COA8 (cytochrome c oxidase assembly factor 8) | 1 | 1.31 | 12.2 | inactive
COA8 (cytochrome c oxidase assembly factor 8) | 2 | -0.0432 | 2.66 | inactive
COA8 (cytochrome c oxidase assembly factor 8) | 3 | -0.116 | 2.15 | inactive
PLOD3 (procollagen-lysine,2-oxoglutarate 5-dioxygenase 3) | 1 | 3.71 | 29.1 | inactive
PLOD3 (procollagen-lysine,2-oxoglutarate 5-dioxygenase 3) | 2 | 3.08 | 24.6 | inactive
PLOD3 (procollagen-lysine,2-oxoglutarate 5-dioxygenase 3) | 3 | 3.14 | 25 | inactive
MTFR2 (mitochondrial fission regulator 2) | 1 | -1.26 | -5.89 | inactive
MTFR2 (mitochondrial fission regulator 2) | 2 | -0.692 | -1.9 | inactive
MTFR2 (mitochondrial fission regulator 2) | 3 | 1.91 | 16.4 | inactive
RPP30 (ribonuclease P/MRP subunit p30) | 1 | -0.894 | -3.33 | inactive
RPP30 (ribonuclease P/MRP subunit p30) | 2 | -1.13 | -4.99 | inactive
RPP30 (ribonuclease P/MRP subunit p30) | 3 | -0.434 | -0.088 | inactive
FLYWCH2 (FLYWCH family member 2) | 1 | -0.155 | 1.87 | inactive
FLYWCH2 (FLYWCH family member 2) | 2 | 0.297 | 5.06 | inactive
FLYWCH2 (FLYWCH family member 2) | 3 | -0.332 | 0.632 | inactive
LMBR1L (limb development membrane protein 1 like) | 1 | 0.165 | 4.13 | inactive
LMBR1L (limb development membrane protein 1 like) | 2 | 6.11 | 45.9 | active
LMBR1L (limb development membrane protein 1 like) | 3 | -1.59 | -8.22 | inactive
SPHK1 (sphingosine kinase 1) | 1 | -1.91 | -10.5 | inactive
SPHK1 (sphingosine kinase 1) | 2 | -0.848 | -3 | inactive
SPHK1 (sphingosine kinase 1) | 3 | -0.875 | -3.19 | inactive
EFS (embryonal Fyn-associated substrate) | 1 | 4.43 | 34.1 | inactive
EFS (embryonal Fyn-associated substrate) | 2 | -0.297 | 0.879 | inactive
EFS (embryonal Fyn-associated substrate) | 3 | -1.36 | -6.61 | inactive
RBCK1 (RANBP2-type and C3HC4-type zinc finger containing 1) | 1 | -0.15 | 1.91 | inactive
RBCK1 (RANBP2-type and C3HC4-type zinc finger containing 1) | 2 | -0.0999 | 2.26 | inactive
RBCK1 (RANBP2-type and C3HC4-type zinc finger containing 1) | 3 | 2.93 | 23.6 | inactive
EID3 (EP300 interacting inhibitor of differentiation 3) | 1 | 0.407 | 5.83 | inactive
EID3 (EP300 interacting inhibitor of differentiation 3) | 2 | -0.428 | -0.0468 | inactive
EID3 (EP300 interacting inhibitor of differentiation 3) | 3 | -0.587 | -1.16 | inactive
ATP6V1C2 (ATPase H+ transporting V1 subunit C2) | 1 | 1.05 | 10.4 | inactive
ATP6V1C2 (ATPase H+ transporting V1 subunit C2) | 2 | 0.0311 | 3.19 | inactive
ATP6V1C2 (ATPase H+ transporting V1 subunit C2) | 3 | 1.95 | 16.7 | inactive
RPL26P11 (ribosomal protein L26 pseudogene 11) | 1 | -0.0325 | 2.74 | inactive
RPL26P11 (ribosomal protein L26 pseudogene 11) | 2 | 7.09 | 52.9 | active
RPL26P11 (ribosomal protein L26 pseudogene 11) | 3 | -0.424 | -0.0162 | inactive
DERL1 (derlin 1) | 1 | -0.438 | -0.113 | inactive
DERL1 (derlin 1) | 2 | 1.31 | 12.2 | inactive
DERL1 (derlin 1) | 3 | -1.29 | -6.07 | inactive
